Data from the supplement of paper PMC6411743.
± gives the standard deviation of the averaged measurements. The list shows a part of the results.

Columns and labels:
Experiment in all cases: NP40-soluble protein abundance relative to vehicle (solubility fold change) (ratio); higher = more soluble protein in presence of GTP
[1] = biological target: T1, ARHGAP1 (UniProt Q07960)
T1 sequence (whole entry): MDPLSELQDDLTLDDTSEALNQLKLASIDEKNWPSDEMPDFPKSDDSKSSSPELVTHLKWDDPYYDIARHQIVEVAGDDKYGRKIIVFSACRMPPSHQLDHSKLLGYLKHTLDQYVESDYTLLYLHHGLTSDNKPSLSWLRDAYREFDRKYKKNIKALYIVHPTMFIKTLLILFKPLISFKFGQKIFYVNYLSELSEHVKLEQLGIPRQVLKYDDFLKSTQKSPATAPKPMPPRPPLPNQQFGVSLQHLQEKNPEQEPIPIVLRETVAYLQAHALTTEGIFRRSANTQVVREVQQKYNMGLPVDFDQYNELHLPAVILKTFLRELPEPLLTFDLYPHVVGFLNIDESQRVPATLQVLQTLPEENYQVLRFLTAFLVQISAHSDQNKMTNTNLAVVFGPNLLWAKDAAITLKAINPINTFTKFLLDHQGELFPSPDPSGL
How it was run: (§1)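 Values are fold changes against the detergent-processed vehicle, based on vsn-normalised intensities. Jurkat crude lysate was treated at eight concentrations from 0.1 to 10 mM (10 min at room temperature, then 3 min at 37 °C), solubilised with 0.8% NP40 and benzonase, ultracentrifuged and analysed by TMT-labelled LC-MS/MS over three independent experiments.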

[2] = biological target: T2, GALE (UniProt Q14376)
T2 sequence (whole entry): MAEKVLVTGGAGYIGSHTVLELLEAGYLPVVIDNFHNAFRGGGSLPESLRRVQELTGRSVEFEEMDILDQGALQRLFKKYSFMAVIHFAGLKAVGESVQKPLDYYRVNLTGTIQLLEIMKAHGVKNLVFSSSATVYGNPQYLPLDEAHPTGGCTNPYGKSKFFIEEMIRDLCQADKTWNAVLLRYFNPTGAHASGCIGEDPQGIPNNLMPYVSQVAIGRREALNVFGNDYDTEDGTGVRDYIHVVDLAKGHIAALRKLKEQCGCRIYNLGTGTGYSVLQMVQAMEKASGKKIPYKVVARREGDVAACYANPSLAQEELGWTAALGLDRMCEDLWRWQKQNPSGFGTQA
How it was run: as §1

[3] = biological target: T3, IRF3 (UniProt Q14653)
T3 sequence (whole entry): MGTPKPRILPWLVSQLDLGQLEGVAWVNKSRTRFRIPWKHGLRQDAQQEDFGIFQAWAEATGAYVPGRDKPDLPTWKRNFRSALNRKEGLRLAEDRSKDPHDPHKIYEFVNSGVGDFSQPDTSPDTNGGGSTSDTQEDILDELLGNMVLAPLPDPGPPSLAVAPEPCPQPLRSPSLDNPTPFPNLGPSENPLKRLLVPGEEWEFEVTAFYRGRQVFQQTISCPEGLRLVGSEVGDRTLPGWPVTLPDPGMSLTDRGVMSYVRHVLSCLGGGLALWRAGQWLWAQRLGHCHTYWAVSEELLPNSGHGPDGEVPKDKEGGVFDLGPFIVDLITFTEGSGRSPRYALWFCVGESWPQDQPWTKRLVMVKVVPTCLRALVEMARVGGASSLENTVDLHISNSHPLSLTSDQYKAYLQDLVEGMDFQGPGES
How it was run: as §1

[4] = biological target: T4, LAGE3 (UniProt Q14657)
T4 sequence (whole entry): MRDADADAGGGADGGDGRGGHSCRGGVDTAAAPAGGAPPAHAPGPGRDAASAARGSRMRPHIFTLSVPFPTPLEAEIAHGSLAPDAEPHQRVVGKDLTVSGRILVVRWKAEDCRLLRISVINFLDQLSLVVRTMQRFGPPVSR
How it was run: as §1

[5] = biological target: T5, MLLT11 (UniProt Q13015)
T5 sequence (whole entry): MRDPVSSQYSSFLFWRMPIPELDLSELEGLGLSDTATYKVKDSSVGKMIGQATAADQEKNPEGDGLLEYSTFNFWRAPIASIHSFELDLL
How it was run: as §1

[6] = biological target: T6, PURA (UniProt Q00577)
T6 sequence (whole entry): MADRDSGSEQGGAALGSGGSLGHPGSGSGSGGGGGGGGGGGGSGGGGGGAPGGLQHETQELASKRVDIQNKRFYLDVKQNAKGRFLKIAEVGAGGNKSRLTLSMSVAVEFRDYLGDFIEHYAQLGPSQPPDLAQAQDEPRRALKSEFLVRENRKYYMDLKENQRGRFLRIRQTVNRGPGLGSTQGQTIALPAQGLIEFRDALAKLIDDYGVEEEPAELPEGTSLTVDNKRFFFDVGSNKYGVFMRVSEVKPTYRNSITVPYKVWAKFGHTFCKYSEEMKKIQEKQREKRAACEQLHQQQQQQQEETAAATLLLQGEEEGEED
How it was run: as §1

Nc1nc2c(ncn2[C@@H]2O[C@H](COP(=O)(O)OP(=O)(O)OP(=O)(O)O)[C@@H](O)[C@H]2O)c(=O)[nH]1 [guanosine triphosphate]
NP40-soluble protein abundance ([1]; concentration: 0.1mM): 0.963 ± 0.015 | NP40-soluble protein abundance ([1]; concentration: 0.5mM): 0.961 ± 0.012 | NP40-soluble protein abundance ([1]; concentration: 1mM): 0.952 ± 0.011 | NP40-soluble protein abundance ([1]; concentration: 2mM): 0.93 ± 0.045 | NP40-soluble protein abundance ([1]; concentration: 4mM): 0.942 ± 0.042 | NP40-soluble protein abundance ([1]; concentration: 6mM): 0.911 ± 0.037 | NP40-soluble protein abundance ([1]; concentration: 8mM): 0.867 ± 0.06 | NP40-soluble protein abundance ([1]; concentration: 10mM): 0.908 ± 0.064 | NP40-soluble protein abundance ([2]; concentration: 0.1mM): 1 ± 0.042 | NP40-soluble protein abundance ([2]; concentration: 0.5mM): 1.01 ± 0.013 | NP40-soluble protein abundance ([2]; concentration: 1mM): 0.957 ± 0.031 | NP40-soluble protein abundance ([2]; concentration: 2mM): 0.97 ± 0.038 | NP40-soluble protein abundance ([2]; concentration: 4mM): 0.937 ± 0.063 | NP40-soluble protein abundance ([2]; concentration: 6mM): 0.932 ± 0.026 | NP40-soluble protein abundance ([2]; concentration: 8mM): 0.906 ± 0.081 | NP40-soluble protein abundance ([2]; concentration: 10mM): 0.919 ± 0.11 | NP40-soluble protein abundance ([3]; concentration: 0.1mM): 0.98 ± 0.044 | NP40-soluble protein abundance ([3]; concentration: 0.5mM): 0.984 ± 0.051 | NP40-soluble protein abundance ([3]; concentration: 1mM): 0.974 ± 0.043 | NP40-soluble protein abundance ([3]; concentration: 2mM): 0.946 ± 0.053 | NP40-soluble protein abundance ([3]; concentration: 4mM): 0.923 ± 0.13 | NP40-soluble protein abundance ([3]; concentration: 6mM): 0.919 ± 0.08 | NP40-soluble protein abundance ([3]; concentration: 8mM): 0.909 ± 0.1 | NP40-soluble protein abundance ([3]; concentration: 10mM): 0.935 ± 0.079 | NP40-soluble protein abundance ([4]; concentration: 0.1mM): 1.09 ± 0.084 | NP40-soluble protein abundance ([4]; concentration: 0.5mM): 0.835 ± 0.023 | NP40-soluble protein abundance ([4]; concentration: 1mM): 1.02 ± 0.052 | NP40-soluble protein abundance ([4]; concentration: 2mM): 0.923 ± 0.059 | NP40-soluble protein abundance ([4]; concentration: 4mM): 0.912 ± 0.049 | NP40-soluble protein abundance ([4]; concentration: 6mM): 0.864 ± 0.039 | NP40-soluble protein abundance ([4]; concentration: 8mM): 0.834 ± 0.066 | NP40-soluble protein abundance ([4]; concentration: 10mM): 0.897 ± 0.1 | NP40-soluble protein abundance ([5]; concentration: 0.1mM): 0.904 ± 0.025 | NP40-soluble protein abundance ([5]; concentration: 0.5mM): 1.01 ± 0.065 | NP40-soluble protein abundance ([5]; concentration: 1mM): 1.43 ± 0.074 | NP40-soluble protein abundance ([5]; concentration: 2mM): 1.5 ± 0.15 | NP40-soluble protein abundance ([5]; concentration: 4mM): 1.46 ± 0.28 | NP40-soluble protein abundance ([5]; concentration: 6mM): 1.36 ± 0.13 | NP40-soluble protein abundance ([5]; concentration: 8mM): 1.35 ± 0.089 | NP40-soluble protein abundance ([5]; concentration: 10mM): 1.38 ± 0.2 | NP40-soluble protein abundance ([6]; concentration: 0.1mM): 0.976 ± 0.019 | NP40-soluble protein abundance ([6]; concentration: 0.5mM): 0.948 ± 0.013 | NP40-soluble protein abundance ([6]; concentration: 1mM): 0.944 ± 0.05 | NP40-soluble protein abundance ([6]; concentration: 2mM): 0.906 ± 0.026 | NP40-soluble protein abundance ([6]; concentration: 4mM): 0.913 ± 0.064 | NP40-soluble protein abundance ([6]; concentration: 6mM): 0.913 ± 0.043 | NP40-soluble protein abundance ([6]; concentration: 8mM): 0.908 ± 0.059 | NP40-soluble protein abundance ([6]; concentration: 10mM): 0.913 ± 0.043
